Laboratory results taken from patent US8957042B2, “Cancer treatment targeting non-coding RNA overexpression” (The Texas A&M University System, priority 2012, dated 2015).
Some results were stated once for a whole list of compounds, not compound by compound. At least one structure is not confirmed: it was looked up by name or label, or the drawing left a doubt.

Test system: HOTAIR
Assay: HOTAIR expression (RNA levels, real time PCR) in Panc1 cells
Type: cell-based, human
Description: RNA isolation and quantitative PCR: Total RNA was extracted either from pancreatic cancer cell lines or from tissue samples. Five control and siRNA HOTAIR-transfected tissue samples were analyzed, respectively, from xenograft study using mirVana RNA isolation kit from Ambion (Austin, Tex., USA), and quantitative PCR was carried out using iCycler IQTM real-time PCR detection system (Bio-Rad, Hercules, Calif., USA) after reverse transcription to cDNAs. The RT primer sets for HOTAIR, PCDHB5, PCDH10, JAM2, LAMB3, ABL2, SNA1 and LAMC2 were used as described previously (Gupta, R. A., et al., “Long Non-Coding RNA HOTAIR Reprograms Chromatin State to Promote Cancer Metastasis,” Nature 464:1071-1076, 2010). The forward and reverse oligonucleotide primer sequences specifically for HOTAIR amplification and detection are also set forth herein as SEQ ID NOS:1 and 2, respectively.

Structure (SMILES) | decrease of HOTAIR
COC(=O)[C@@]1(C)CCC2(C)CC[C@]3(C)C(=CC(=O)[C@@H]4C5(C)C=C(C#N)C(=O)C(C)(C)[C@@H]5CCC43C)C2C1 (stereo partly drawn) [CDODA-Me, methyl 2-cyano-3,11-dioxo-18β-olean-1,12-dien-30-oate] | > 50%
COC(=O)[C@@]1(C)CC[C@]2(C)CC[C@]3(C)C(=CC(=O)[C@@H]4[C@@]5(C)C=C(C(F)(F)F)C(=O)C(C)(C)[C@@H]5CC[C@]43C)[C@@H]2C1 [CF3DODA-Me] | > 50%
